# In doi:10.1101/2024.09.20.614077:
# Protein sequences, listed by entry. Tags and fused reporters are not part of them. Lines headed by an entry give the natural chain unless they say otherwise; changes in a name come on top.
# UniProt A2A9A2: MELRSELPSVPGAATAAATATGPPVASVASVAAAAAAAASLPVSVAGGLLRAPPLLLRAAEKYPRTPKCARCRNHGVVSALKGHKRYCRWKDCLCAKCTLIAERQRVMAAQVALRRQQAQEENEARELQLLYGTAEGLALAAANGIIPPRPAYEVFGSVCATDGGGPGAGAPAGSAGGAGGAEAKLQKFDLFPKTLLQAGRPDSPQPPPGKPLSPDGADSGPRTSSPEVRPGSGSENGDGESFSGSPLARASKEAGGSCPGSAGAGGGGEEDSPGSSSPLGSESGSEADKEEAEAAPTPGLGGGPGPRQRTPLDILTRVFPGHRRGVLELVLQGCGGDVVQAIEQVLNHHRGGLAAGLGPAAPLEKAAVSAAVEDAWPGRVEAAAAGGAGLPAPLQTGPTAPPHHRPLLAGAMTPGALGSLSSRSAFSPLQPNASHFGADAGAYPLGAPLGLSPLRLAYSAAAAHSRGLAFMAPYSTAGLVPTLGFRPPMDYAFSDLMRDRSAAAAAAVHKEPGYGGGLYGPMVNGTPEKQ
# B1: Zfp423 (pCDNA3-Myc-Zfp423) (protein, UniProt Q80TS5 1-1292)
# chain: MSRRKQAKPRSVKVEEGEASDFSLAWDSSVAAAGGLEGEPECDRKTSRALEDRNSVTSQEERNEDDEDVEDESIYTCDHCQQDFESLADLTDHRAHRCPGDGDDDPQLSWVASSPSSKDVASPTQMIGDGCDLGLGEEEGGTGLPYPCQFCDKSFIRLSYLKRHEQIHSDKLPFKCTFCSRLFKHKRSRDRHIKLHTGDKKYHCHECEAAFSRSDHLKIHLKTHSSSKPFKCSVCKRGFSSTSSLQSHMQAHKKNKEHLAKSEKEAKKDDFMCDYCEDTFSQTEELEKHVLTLHPQLSEKADLQCIHCPEVFVDESTLLAHIHQAHANQKHKCPMCPEQFSSVEGVYCHLDSHRQPDSSNHSVSPDPVLGSVASMSSATPDSSASVERGSTPDSTLKPLRGQKKMRDDGQSWPKVVYSCPYCSKRDFTSLAVLEIHLKTIHADKPQQSHTCQICLDSMPTLYNLNEHVRKLHKSHAYPVMQFGNISAFHCNYCPEMFADINSLQEHIRVSHCGPNANPPDGNNAFFCNQCSMGFLTESSLTEHIQQAHCSVGSTKLESPVVQPTQSFMEVYSCPYCTNSPIFGSILKLTKHIKENHKNIPLAHSKKSKAEQSPVSSDVEVSSPKRQRLSGSANSISNGEYPCNQCDLKFSNFESFQTHLKLHLELLLRKQACPQCKEDFDSQESLLQHLTVHYMTTSTHYVCESCDKQFSSVDDLQKHLLDMHTFVLYHCTLCQEVFDSKVSIQVHLAVKHSNEKKMYRCTACNWDFRKEADLQVHVKHSHLGNPAKAHKCIFCGETFSTEVELQCHITTHSKKYNCRFCSKAFHAVILLEKHLREKHCVFDAAAENGTANGVPPTSTKKAEPADLQGMLLKNPEAPNSHEASEDDVDASEPMYGCDICGAAYTMEVLLQNHRLRDHNIRPGEDDGSRKKAEFIKGSHKCNVCSRTFFSENGLREHLQTHRGPAKHYMCPICGERFPSLLTLTEHKVTHSKSLDTGTCRICKMPLQSEEEFIEHCQMHPDLRNSLTGFRCVVCMQTVTSTLELKIHGTFHMQKLAGSSAASSPNGQGLQKLYKCALCLKEFRSKQDLVRLDVNGLPYGLCAGCMARSANGQVGGLAPPEPADRPCAGLRCPECNVKFESAEDLESHMQVDHRDLTPETSGPRKGAQTSPVPRKKTYQCIKCQMTFENEREIQIHVANHMIEEGINHECKLCNQMFDSPAKLLCHLIEHSFEGMGGTFKCPVCFTVFVQANKLQQHIFAVHGQEDKIYDCSQCPQKFFFQTELQNHTMSQHAQ
# Biological target: Flag-Dmrta2 mutant lacking the DM domain (Flag-Dmrta2 αDM) (mouse) (UniProt A2A9A2)
# Test: co-IP
binder,measurement,value
B1,binding,no binding

# Results are given in words; binding and its absence hold for the method and conditions named. In cells and extracts the contact can be indirect. Where a sequence is shown, tags or fusion partners need not be part of it.
